Test results published in the supplement of paper PMC12823440, “Inhibitors supercharge kinase turnover through native proteolytic circuits” (Nature, 2025).
Where a name gives a salt, the structure may show the parent alone. The list shows a part of the results. The calls rarely recur for the same compound in another form.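 In K562 cells expressing nanoluciferase-fused kinases, luminescence was recorded at 4 h intervals between 2 and 18 h, normalized as percent of control with DMSO at 100% and a positive control at 0%. A significant (2 sigma) signal drop marks a time point as decreased. The authors' rule for a hit is not shown and takes in more than the number of time points.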

By UniProt entry, the sequences of proteins in these tests, tags left out. Where a name states a change or a piece, a line headed by the entry shows the natural chain unless it says otherwise.
UniProt Q01974, whole entry: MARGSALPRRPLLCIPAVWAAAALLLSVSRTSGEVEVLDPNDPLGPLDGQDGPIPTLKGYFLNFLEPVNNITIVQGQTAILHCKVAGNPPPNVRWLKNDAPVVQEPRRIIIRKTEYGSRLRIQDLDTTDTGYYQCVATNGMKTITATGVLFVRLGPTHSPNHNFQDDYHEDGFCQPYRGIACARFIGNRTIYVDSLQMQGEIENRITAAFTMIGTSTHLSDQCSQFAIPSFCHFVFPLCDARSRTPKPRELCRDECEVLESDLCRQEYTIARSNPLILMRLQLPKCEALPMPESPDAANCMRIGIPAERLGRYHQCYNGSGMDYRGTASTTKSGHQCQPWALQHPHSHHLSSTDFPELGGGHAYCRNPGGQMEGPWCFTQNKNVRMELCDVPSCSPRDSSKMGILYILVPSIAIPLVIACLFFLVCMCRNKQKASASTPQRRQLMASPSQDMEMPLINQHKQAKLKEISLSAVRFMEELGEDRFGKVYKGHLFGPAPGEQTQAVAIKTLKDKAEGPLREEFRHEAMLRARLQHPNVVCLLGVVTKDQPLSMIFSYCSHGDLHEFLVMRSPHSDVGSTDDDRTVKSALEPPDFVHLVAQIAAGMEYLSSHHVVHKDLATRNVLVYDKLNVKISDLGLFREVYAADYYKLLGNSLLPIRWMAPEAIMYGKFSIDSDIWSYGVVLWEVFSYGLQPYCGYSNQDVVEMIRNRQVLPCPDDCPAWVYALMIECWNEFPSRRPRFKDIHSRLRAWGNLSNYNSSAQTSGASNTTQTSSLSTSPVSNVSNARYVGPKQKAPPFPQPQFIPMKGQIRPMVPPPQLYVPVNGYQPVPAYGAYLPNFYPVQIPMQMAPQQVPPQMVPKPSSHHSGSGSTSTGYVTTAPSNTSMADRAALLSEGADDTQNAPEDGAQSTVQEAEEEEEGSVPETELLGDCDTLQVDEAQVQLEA
UniProt Q15418, whole entry: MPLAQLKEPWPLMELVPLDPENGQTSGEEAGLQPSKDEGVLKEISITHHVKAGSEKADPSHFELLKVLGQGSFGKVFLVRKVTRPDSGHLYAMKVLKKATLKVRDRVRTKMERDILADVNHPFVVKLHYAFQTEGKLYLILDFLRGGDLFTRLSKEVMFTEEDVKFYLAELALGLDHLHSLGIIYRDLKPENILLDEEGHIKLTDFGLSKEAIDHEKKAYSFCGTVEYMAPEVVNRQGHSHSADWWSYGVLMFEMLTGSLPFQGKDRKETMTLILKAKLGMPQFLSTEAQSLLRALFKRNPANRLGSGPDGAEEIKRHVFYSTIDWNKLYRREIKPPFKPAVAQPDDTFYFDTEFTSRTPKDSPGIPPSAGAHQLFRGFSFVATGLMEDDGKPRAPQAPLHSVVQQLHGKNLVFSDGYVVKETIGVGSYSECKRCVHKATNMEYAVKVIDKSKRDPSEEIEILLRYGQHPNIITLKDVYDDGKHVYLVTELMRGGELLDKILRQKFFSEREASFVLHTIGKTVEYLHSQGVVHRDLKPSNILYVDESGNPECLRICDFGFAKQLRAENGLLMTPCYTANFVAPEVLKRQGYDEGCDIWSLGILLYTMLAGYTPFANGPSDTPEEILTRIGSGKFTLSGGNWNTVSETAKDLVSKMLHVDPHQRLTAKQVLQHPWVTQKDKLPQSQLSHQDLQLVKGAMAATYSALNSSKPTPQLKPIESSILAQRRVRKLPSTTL
UniProt Q9NYA1, whole entry: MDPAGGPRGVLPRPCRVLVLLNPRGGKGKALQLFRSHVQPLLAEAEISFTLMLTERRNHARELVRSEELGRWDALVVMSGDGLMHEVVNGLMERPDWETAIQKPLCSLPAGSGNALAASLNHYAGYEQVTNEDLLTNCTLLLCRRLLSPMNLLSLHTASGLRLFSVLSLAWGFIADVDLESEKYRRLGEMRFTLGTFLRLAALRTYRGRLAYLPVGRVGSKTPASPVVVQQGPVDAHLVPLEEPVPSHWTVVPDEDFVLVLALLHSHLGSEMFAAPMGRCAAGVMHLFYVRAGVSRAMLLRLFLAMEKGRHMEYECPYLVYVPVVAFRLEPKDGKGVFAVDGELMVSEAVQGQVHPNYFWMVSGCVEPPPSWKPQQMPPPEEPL
UniProt Q9Y6E0: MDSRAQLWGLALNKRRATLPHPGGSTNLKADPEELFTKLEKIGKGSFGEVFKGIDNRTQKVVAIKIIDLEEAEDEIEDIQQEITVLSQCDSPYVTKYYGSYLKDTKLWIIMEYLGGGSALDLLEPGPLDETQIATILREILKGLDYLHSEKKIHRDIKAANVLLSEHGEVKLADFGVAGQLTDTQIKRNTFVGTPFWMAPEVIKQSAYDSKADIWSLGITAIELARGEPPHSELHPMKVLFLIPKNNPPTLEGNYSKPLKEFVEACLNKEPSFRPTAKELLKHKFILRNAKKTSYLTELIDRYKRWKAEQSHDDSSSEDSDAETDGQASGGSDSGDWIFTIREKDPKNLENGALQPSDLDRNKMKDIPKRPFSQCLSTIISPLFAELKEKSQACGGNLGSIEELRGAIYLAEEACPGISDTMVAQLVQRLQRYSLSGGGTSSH
UniProt Q15208: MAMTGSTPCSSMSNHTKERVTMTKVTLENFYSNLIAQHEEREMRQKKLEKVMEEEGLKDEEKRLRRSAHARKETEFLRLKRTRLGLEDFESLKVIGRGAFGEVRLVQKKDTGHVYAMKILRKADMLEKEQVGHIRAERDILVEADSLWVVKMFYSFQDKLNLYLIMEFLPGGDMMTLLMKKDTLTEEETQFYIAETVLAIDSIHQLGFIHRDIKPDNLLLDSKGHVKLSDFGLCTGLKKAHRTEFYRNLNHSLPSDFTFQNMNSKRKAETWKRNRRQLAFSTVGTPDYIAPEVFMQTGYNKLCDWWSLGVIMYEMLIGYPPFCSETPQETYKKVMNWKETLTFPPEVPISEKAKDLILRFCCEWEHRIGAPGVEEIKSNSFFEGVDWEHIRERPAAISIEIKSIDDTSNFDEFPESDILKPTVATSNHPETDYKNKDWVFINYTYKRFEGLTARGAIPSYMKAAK
UniProt P42680: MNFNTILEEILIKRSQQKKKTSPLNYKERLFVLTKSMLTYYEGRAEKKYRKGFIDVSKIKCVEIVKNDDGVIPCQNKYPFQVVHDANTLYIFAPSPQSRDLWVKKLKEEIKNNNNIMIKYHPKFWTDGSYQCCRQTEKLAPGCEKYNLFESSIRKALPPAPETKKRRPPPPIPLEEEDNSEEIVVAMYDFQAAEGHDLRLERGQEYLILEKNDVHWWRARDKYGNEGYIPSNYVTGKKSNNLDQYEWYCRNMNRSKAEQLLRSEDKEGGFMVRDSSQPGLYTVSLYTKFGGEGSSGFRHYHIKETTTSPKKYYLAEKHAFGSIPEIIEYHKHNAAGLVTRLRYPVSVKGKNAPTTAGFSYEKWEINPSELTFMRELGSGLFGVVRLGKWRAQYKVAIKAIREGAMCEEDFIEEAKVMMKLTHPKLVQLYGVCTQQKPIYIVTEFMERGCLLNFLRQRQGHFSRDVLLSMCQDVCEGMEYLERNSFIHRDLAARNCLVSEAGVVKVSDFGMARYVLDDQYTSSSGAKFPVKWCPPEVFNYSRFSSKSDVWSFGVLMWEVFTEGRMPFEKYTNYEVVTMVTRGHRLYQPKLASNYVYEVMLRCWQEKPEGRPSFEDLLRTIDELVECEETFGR
UniProt Q6PHR2: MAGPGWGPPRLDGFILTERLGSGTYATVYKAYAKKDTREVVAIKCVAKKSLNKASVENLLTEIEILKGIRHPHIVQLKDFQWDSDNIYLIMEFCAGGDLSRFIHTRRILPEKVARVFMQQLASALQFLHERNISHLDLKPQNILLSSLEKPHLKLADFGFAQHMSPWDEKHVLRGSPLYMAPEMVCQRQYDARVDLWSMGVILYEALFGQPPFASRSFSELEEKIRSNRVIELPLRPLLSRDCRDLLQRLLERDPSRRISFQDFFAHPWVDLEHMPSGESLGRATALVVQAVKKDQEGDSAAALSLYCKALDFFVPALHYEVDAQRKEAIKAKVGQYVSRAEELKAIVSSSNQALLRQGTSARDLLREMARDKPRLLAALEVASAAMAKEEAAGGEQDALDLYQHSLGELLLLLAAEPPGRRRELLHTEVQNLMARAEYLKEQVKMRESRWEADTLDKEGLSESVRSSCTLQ
UniProt P07947, whole entry, looked up: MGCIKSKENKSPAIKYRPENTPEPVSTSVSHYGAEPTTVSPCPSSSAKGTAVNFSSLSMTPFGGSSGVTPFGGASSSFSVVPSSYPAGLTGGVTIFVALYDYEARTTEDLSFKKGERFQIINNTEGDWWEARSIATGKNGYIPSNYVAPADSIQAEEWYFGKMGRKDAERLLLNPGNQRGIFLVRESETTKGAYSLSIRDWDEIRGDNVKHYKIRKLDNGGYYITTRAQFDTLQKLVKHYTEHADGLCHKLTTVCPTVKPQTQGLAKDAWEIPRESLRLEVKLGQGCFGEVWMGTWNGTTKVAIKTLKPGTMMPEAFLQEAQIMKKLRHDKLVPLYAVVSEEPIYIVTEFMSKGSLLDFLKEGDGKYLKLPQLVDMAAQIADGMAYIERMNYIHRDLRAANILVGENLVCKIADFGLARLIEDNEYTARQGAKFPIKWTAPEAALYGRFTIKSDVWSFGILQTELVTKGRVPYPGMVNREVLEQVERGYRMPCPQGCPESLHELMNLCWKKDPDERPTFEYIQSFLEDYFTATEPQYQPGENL
UniProt P43403: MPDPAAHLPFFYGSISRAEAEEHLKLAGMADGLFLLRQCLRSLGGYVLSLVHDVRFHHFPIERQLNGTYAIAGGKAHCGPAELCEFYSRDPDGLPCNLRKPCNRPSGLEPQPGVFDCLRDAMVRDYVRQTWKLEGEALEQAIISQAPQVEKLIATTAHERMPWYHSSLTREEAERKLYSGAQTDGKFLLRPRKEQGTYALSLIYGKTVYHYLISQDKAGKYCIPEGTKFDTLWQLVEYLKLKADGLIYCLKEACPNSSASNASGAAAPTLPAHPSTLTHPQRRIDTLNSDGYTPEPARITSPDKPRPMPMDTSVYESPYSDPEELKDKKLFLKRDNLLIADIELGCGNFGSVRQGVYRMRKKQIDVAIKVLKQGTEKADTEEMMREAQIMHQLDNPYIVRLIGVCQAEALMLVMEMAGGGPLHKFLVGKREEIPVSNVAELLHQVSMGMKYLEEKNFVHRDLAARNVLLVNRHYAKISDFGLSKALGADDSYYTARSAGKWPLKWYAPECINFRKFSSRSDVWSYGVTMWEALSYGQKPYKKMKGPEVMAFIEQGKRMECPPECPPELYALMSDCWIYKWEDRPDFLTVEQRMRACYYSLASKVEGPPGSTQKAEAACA
UniProt P11802: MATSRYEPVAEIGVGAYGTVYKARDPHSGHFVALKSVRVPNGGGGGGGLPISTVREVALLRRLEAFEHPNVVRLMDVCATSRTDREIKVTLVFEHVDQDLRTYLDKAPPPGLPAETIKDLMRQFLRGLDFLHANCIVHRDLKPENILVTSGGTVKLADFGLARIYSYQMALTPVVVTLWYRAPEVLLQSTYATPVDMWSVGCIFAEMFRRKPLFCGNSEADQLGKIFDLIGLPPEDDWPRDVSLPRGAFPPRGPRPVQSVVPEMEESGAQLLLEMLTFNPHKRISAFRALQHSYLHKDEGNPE
UniProt P50613: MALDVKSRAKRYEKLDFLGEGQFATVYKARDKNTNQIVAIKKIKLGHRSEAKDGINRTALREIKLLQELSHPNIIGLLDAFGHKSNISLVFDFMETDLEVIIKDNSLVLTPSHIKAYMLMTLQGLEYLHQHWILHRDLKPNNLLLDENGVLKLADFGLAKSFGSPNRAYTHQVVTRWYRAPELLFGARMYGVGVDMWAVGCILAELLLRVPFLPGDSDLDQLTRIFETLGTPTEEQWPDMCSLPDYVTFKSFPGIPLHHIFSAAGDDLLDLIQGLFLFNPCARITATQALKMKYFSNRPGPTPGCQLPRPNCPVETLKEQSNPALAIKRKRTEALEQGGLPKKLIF
UniProt P50750, whole entry: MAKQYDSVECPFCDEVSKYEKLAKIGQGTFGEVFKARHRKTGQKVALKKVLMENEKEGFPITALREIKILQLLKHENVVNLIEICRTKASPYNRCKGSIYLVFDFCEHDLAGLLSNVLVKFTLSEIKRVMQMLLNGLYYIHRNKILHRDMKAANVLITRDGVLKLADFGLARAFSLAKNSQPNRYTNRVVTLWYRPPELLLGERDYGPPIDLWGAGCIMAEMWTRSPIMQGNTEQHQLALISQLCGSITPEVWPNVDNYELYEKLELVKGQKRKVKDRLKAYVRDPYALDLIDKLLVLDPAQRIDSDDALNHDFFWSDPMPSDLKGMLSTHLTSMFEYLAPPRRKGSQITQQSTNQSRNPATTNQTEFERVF

Tests used:
Conditions in all cases: K562; 2-18 h
ROR2 = ROR2 (UniProt Q01974); assay: number of time points (of 5) at which kinase-Nluc abundance scored as decreased, DMSO-normalised (count); higher = more persistent destabilization
RPS6KA1 = RPS6KA1 (UniProt Q15418); assay: as above
SPHK1 = SPHK1 (UniProt Q9NYA1); assay: as above
SRC = SRC (UniProt P12931); assay: as above
STK24 = STK24 (UniProt Q9Y6E0); assay: as above
STK38 = STK38 (UniProt Q15208); assay: as above
SYK = SYK (UniProt P43405); assay: as above
TEC = TEC (UniProt P42680); assay: as above
TYK2 = TYK2 (UniProt P29597); assay: as above
ULK3 = ULK3 (UniProt Q6PHR2); assay: as above
YES1 = YES1 (UniProt P07947); assay: as above
ZAK = ZAK (UniProt Q9NYL2); assay: as above
ZAP70 = ZAP70 (UniProt P43403); assay: as above
CDK4 = CDK4 (UniProt P11802); assay: number of time points (of 4; 2 h point missing) at which kinase-Nluc abundance scored as decreased, DMSO-normalised (count); higher = more persistent destabilization
CDK7 = CDK7 (UniProt P50613); assay: as above
CDK9 = CDK9 (UniProt P50750); assay: as above

| SMILES | number of time points (ROR2) | number of time points (RPS6KA1) | number of time points (SPHK1) | number of time points (SRC) | number of time points (STK24) | number of time points (STK38) | number of time points (SYK) | number of time points (TEC) | number of time points (TYK2) | number of time points (ULK3) | number of time points (YES1) | number of time points (ZAK) | number of time points (ZAP70) | number of time points (CDK4) | number of time points (CDK7) | number of time points (CDK9) |
| --- | --- | --- | --- | --- | --- | --- | --- | --- | --- | --- | --- | --- | --- | --- | --- | --- |
| FC(F)(c1ccc2ncccc2c1)c1nnc2ccc(-c3ccncc3)nn12 (10 µM) | 0 | 0 | 0 | 0 | 0 | 0 | 0 | 0 | 0 | 0 | 0 | 0 | 0 | 0 | 0 | 0 |
| Cc1ccccc1-c1c2nccc(-c3ccc(F)cc3F)c2cc[n+]1[O-] (10 µM) | 0 | 0 | 0 | 0 | 0 | 0 | 0 | 0 | 0 | 0 | 0 | 0 | 0 | 0 | 0 | 0 |
| COc1cc(/C=C/C(=O)NCC(O)c2ccc(O)cc2)ccc1O (stereo not drawn) [N-Feruloyloctopamine] (2.5 µM) | 0 | 0 | 0 | 0 | 0 | 0 | 0 | 0 | 0 | 0 | 0 | 0 | 0 | 0 | 0 | 0 |
| O=C(N/N=C/c1coc2ccccc2c1=O)c1cccnc1 (10 µM) | 0 | 0 | 0 | 0 | 0 | 0 | 0 | 0 | 0 | 0 | 0 | 0 | 0 | 0 | 0 | 0 |
| CN1C(=O)N[C@H](Cc2c[nH]c3c(Cl)cccc23)C1=O [Necrostatin 2] (10 µM) | 0 | 0 | 0 | 0 | 0 | 0 | 0 | 0 | 0 | 0 | 0 | 0 | 0 | 0 | 0 | 0 |
| c1ccc(-c2[nH]ncc2-c2ccnc3ccccc23)nc1 (10 µM) | 0 | 0 | 0 | 0 | 0 | 0 | 0 | 0 | 0 | 0 | 0 | 0 | 0 | 0 | 0 | 0 |
| O=C(Nc1ccc(CN2CCOCC2)cc1)c1ccc(-c2cccc(Cl)c2)o1 (10 µM) | 0 | 0 | 0 | 0 | 0 | 0 | 0 | 0 | 0 | 0 | 0 | 0 | 0 | 0 | 0 | 0 |
| Cn1cnc2c(F)c(Nc3ccc(Br)cc3Cl)c(C(=O)NOCCO)cc21 [Selumetinib] (10 µM) | 0 | 0 | 0 | 0 | 0 | 0 | 0 | 0 | 0 | 0 | 0 | 0 | 0 | 0 | 0 | 0 |
| COc1cccc(OC)c1C(=O)OCc1cc(O)ccc1O[C@@H]1O[C@H](CO)[C@@H](O)[C@H](O)[C@H]1O [Curculigoside] (10 µM) | 0 | 0 | 0 | 0 | 0 | 0 | 0 | 0 | 0 | 0 | 0 | 0 | 0 | 0 | 0 | 0 |
| O=C1N[C@@H](Cc2c[nH]c3ccccc23)C(=O)N2CCC[C@@H]12 [Brevianamide F] (10 µM) | 0 | 0 | 0 | 0 | 0 | 0 | 0 | 0 | 0 | 0 | 0 | 0 | 0 | 0 | 0 | 0 |
| C[C@@H](c1ccc(F)cc1)n1nnc2cnc3ccc(-c4ccc5ocnc5c4)cc3c21 (10 µM) | 0 | 0 | 0 | 0 | 0 | 0 | 0 | 0 | 0 | 0 | 0 | 0 | 0 | 0 | 0 | 0 |
| CC[C@@H](Oc1nc(Oc2cc(C)cc(-c3cccc(CN)c3)c2)c(F)cc1F)C(=O)O (10 µM) | 0 | 0 | 0 | 0 | 0 | 0 | 0 | 0 | 0 | 0 | 0 | 0 | 0 | 0 | 0 | 0 |
| Cn1cc(-c2cnn3c(N)c(Br)c([C@@H]4CCCNC4)nc23)cn1 (2.5 µM) | 0 | 0 | 0 | 0 | 1 | 0 | 0 | 1 | 1 | 1 | 1 | 1 | 0 | 0 | 2 | 1 |
| Oc1cc2c(cc1O)C(Cc1cccc3ccccc13)NCC2 (stereo not drawn) (10 µM) | 0 | 0 | 0 | 0 | 0 | 0 | 0 | 0 | 0 | 0 | 0 | 0 | 0 | 0 | 0 | 0 |
| O=C(NCCN1CCCC1)c1cc(-c2ccc(CN3CCOCC3)cc2)nc2ccc(F)cc12 (10 µM) | 0 | 0 | 0 | 0 | 0 | 0 | 0 | 0 | 0 | 0 | 0 | 0 | 0 | 0 | 0 | 0 |
| C=C(CC[C@@H](C(=O)O)[C@H]1[C@H](O)C[C@@]2(C)C3=C(CC[C@]12C)[C@@]1(C)CC[C@H](OC(C)=O)C(C)(C)[C@@H]1CC3)C(C)C [Pachymic acid] (10 µM) | 0 | 0 | 0 | 0 | 0 | 0 | 0 | 0 | 0 | 0 | 0 | 0 | 0 | 0 | 0 | 0 |
| NCCNS(=O)(=O)c1cccc2c(Cl)cccc12 [A-3 (hydrochloride)] (10 µM) | 0 | 0 | 0 | 0 | 0 | 0 | 0 | 0 | 0 | 0 | 0 | 0 | 0 | 0 | 0 | 0 |
| NS(=O)(=O)c1ccc(-n2nc(C(F)(F)F)cc2-c2ccc(Cl)cc2)cc1 (10 µM) | 0 | 0 | 0 | 0 | 0 | 0 | 0 | 0 | 0 | 0 | 0 | 0 | 0 | 0 | 0 | 0 |
| Cc1ccc(CNc2ncnc3ccc(-c4ccc(CO)o4)cc23)o1 (10 µM) | 0 | 0 | 0 | 0 | 0 | 0 | 0 | 0 | 0 | 0 | 0 | 0 | 0 | 0 | 0 | 0 |
| c1cncc(CN2CCC(n3ncc4c(N5CCOCC5)nc(-c5ccc6[nH]ccc6c5)nc43)CC2)c1 (10 µM) | 0 | 0 | 0 | 0 | 0 | 1 | 0 | 0 | 0 | 3 | 0 | 1 | 0 | 0 | 2 | 2 |
| CN(CC(=O)N(Cc1ccc(C2CCCCC2)cc1)c1ccc(C(=O)NO)cc1)S(=O)(=O)c1c(F)c(F)c(F)c(F)c1F (2.5 µM) | 0 | 0 | 0 | 0 | 0 | 0 | 0 | 0 | 0 | 0 | 0 | 0 | 0 | 0 | 0 | 0 |
| Cc1cc(Nc2ncnc3ccc(NC4=NC(C)(C)CO4)cc23)ccc1Oc1ccn2ncnc2c1 [Tucatinib] (2.5 µM) | 0 | 0 | 0 | 0 | 0 | 0 | 0 | 0 | 0 | 0 | 0 | 0 | 0 | 0 | 0 | 0 |
| CCCCCCCCCCCCC/C=C/[C@@H](O)[C@@H](N)CO [D-erythro-Sphingosine] (2.5 µM) | 0 | 0 | 0 | 0 | 0 | 0 | 0 | 0 | 0 | 0 | 0 | 0 | 0 | 0 | 0 | 0 |
| Cc1cc(Nc2ncnc3ccc(NC4=NC(C)(C)CO4)cc23)ccc1Oc1ccn2ncnc2c1 [Tucatinib (hemiethanolate)] (2.5 µM) | 0 | 0 | 0 | 0 | 0 | 0 | 0 | 0 | 0 | 0 | 0 | 0 | 0 | 0 | 0 | 0 |
| NC(=O)c1nnc(N[C@@H]2CCCC[C@@H]2N)nc1Nc1cccc2cc[nH]c12 (10 µM) | 0 | 0 | 0 | 0 | 0 | 0 | 0 | 0 | 0 | 0 | 0 | 0 | 0 | 0 | 0 | 0 |
| COc1cc2c(N3CCN(C(=O)Nc4ccc(OC(C)C)cc4)CC3)ncnc2cc1OCCCN1CCCCC1 [Tandutinib] (10 µM) | 0 | 0 | 0 | 0 | 0 | 0 | 0 | 0 | 0 | 0 | 0 | 0 | 0 | 0 | 0 | 0 |
| Cn1ncc(Cl)c1-c1cc(C(=O)N[C@H](CN)Cc2ccc(F)c(F)c2)oc1Cl [Uprosertib] (10 µM) | 0 | 0 | 0 | 0 | 0 | 0 | 0 | 0 | 0 | 0 | 0 | 0 | 0 | 0 | 0 | 0 |
| CCN1CCC(n2cc(CNc3cc(Cl)c4ncc(C#N)c(Nc5ccc(F)c(Cl)c5)c4c3)nn2)CC1 [Cot inhibitor-2] (2.5 µM) | 0 | 0 | 0 | 0 | 0 | 0 | 0 | 0 | 0 | 0 | 0 | 0 | 0 | 0 | 0 | 0 |

Some entries already given, reduced to number of time points (RPS6KA1), number of time points (CDK9) and number of time points (SYK):
SMILES	number of time points (RPS6KA1)	number of time points (CDK9)	number of time points (SYK)
COc1cc(/C=C/C(=O)NCC(O)c2ccc(O)cc2)ccc1O (stereo not drawn) [N-Feruloyloctopamine] (2.5 µM)	0	0	0
O=C(N/N=C/c1coc2ccccc2c1=O)c1cccnc1 (10 µM)	0	0	0
